The record followed here is patent US20260209348A1.

Amino acid sequences for entries named in this document (tags omitted). A change or cut given only in a name is not applied to a line headed by its entry.
UniProt Q01974: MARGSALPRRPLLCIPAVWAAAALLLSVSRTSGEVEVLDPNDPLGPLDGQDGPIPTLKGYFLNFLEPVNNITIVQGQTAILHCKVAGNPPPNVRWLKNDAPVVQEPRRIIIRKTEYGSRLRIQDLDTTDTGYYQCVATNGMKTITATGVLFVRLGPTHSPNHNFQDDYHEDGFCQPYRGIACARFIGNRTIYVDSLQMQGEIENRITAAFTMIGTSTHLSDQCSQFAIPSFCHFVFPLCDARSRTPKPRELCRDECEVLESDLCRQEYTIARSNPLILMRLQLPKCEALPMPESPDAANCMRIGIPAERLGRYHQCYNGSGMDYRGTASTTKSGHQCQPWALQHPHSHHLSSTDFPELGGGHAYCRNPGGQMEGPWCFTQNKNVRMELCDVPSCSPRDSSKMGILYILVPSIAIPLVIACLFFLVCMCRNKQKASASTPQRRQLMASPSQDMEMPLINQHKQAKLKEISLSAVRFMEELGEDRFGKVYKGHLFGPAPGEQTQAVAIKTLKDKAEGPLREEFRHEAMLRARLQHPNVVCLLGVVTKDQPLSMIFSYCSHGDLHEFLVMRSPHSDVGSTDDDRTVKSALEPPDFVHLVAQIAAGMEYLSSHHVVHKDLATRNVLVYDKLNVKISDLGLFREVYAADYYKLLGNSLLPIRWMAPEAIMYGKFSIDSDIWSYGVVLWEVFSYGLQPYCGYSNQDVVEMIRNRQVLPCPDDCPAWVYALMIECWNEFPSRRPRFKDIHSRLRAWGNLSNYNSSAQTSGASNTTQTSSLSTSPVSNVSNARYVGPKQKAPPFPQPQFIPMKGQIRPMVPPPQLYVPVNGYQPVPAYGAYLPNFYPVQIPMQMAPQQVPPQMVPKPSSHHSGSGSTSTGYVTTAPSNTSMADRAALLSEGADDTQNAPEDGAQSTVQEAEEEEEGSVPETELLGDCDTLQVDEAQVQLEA

These are yes or no findings as the source states them, for the method shown. Some binding calls cover weakened binding; strength is not graded here.

In one experiment the target is human ROR2 (human) (UniProt Q01974). The experiment in a line: ELISA, scFv clones. (In general: An ELISA detects its analyte on a solid surface through an enzyme-linked reagent.)
In experiment [1] the target is recombinant human ROR2-Ig (human) (UniProt Q01974). The experiment in a line: flow cytometry, CAR-transfected Jurkat cells, 1 µg/ml ROR2-Ig.

B1: h6E6-112 scFv clone (scFv, V domains shown)
VH: EVQLVESGGGLVKPGGSLRLSCAASGFTFSSYGISWVRQAPGKGLEWVSTISSGGGYTHYAASVKGRFTISRDNAKNSLYLQMNSLRAEDTAVYYCARHPRDFSYALDYWGQGTTVTVSS
VL: EIVMTQSPATLSVSPGERATLSCKASQDVGHYVAWYQQKPGQAPRLLIYWASTRHTGIPARFSGSGSGTEFTLTISSLQSEDFAVYYCQQYNIYPWTFGQGTKVEIK
With B1, in the experiment with human ROR2 (human), the binding entry is reported as “binds”.

B2: h6E6-119 scFv clone (scFv, V domains shown)
VH: EVQLVESGGGLVKPGGSLRLSCAASGFTFSAYGTSWVRQAPGKGLEWVSTISSGGGYTHYVHSVKGRFTISRDNAKNSLYLQMNSLRAEDTAVYYCARHPRDFSYAMDYWGQGTTVTVSS
VL: EIVMTQSPATLSVSPGERATLSCKASQDVGHYVAWYQQKPGQAPRLLIYWASTRHTGIPARFSGSGSGTEFTLTISSLQSEDFAVYYCQQYNIYPWTFGQGTKVEIK
On to B2, for which the binding result with human ROR2 (human) is reported as “binds”.

B3: h6E6-115 scFv clone (scFv, V domains shown)
VH: EVQLVESGGGLVKPGGSLRLSCAASGFTFSGYGMSWVRQAPGKGLEWVSTISSGGGYTHYVTSVKGRFTISRDNAKNSLYLQMNSLRAEDTAVYYCARHPRDFSYALDYWGQGTTVTVSS
VL: EIVMTQSPATLSVSPGERATLSCRASQDVGHYLAWYQQKPGQAPRLLIYWASTRATGIPARFSGSGSGTEFTLTISSLQSEDFAVYYCQQYNIYPWTFGQGTKVEIK
For B3, the binding entry with human ROR2 (human) is “binds”.

B4: h6E6-118 scFv clone (scFv, V domains shown)
VH: EVQLVESGGGLVKPGGSLRLSCAASGFTFSRYGHSWVRQAPGKGLEWVSTISSGGGYTYYAESVKGRFTISRDNAKNSLYLQMNSLRAEDTAVYYCARHPRDFSYAHDYWGQGTTVTVSS
VL: EIVMTQSPATLSVSPGERATLSCRASQDVGHYVAWYQQKPGQAPRLLIYWASTRHTGIPARFSGSGSGTEFTLTISSLQSEDFAVYYCQQYNIYPWTFGQGTKVEIK
As to B4, the binding entry with human ROR2 (human) was “binds”.

B5: h6E6-116 scFv clone (scFv, V domains shown)
VH: EVQLVESGGGLVKPGGSLRLSCAASGFTFSTYGVSWVRQAPGKGLEWVSTISSGGGYTHYAGSVKGRFTISRDNAKNSLYLQMNSLRAEDTAVYYCARHPRDFSYALDYWGQGTTVTVSS
VL: EIVMTQSPATLSVSPGERATLSCRASQDVGHYLAWYQQKPGQAPRLLIYWASTRATGIPARFSGSGSGTEFTLTISSLQSEDFAVYYCQQYNIYPWTFGQGTKVEIK
With B5, the binding entry with human ROR2 (human) was “binds”.

B6: h6E6-120 scFv clone (scFv, V domains shown)
VH: EVQLVESGGGLVKPGGSLRLSCAASGFTFSSYGMSWVRQAPGKGLEWVSTISSGGGYTHYVQSVKGRFTISRDNAKNSLYLQMNSLRAEDTAVYYCARHPRDFSYAMDYWGQGTTVTVSS
VL: EIVMTQSPATLSVSPGERATLSCKASQDVGHYLAWYQQKPGQAPRLLIYWASTRATGIPARFSGSGSGTEFTLTISSLQSEDFAVYYCQQYNIYPWTFGQGTKVEIK
For B6, in the experiment with human ROR2 (human), the binding entry is given as “binds”.

B7: h6E6-113 scFv clone (scFv, V domains shown)
VH: EVQLVESGGGLVKPGGSLRLSCAASGFTFSNYGMSWVRQAPGKGLEWVSTISSGGGYTHYAPSVKGRFTISRDNAKNSLYLQMNSLRAEDTAVYYCARHPRDFSYAMDYWGQGTTVTVSS
VL: EIVMTQSPATLSVSPGERATLSCKASQDVGHYLAWYQQKPGQAPRLLIYWASTRATGIPARFSGSGSGTEFTLTISSLQSEDFAVYYCQQYNIYPWTFGQGTKVEIK
For B7, the binding result in the experiment with human ROR2 (human) is “binds”.

B8: h6E6-117 scFv clone (scFv, V domains shown)
VH: EVQLVESGGGLVKPGGSLRLSCAASGFTFSVYGISWVRQAPGKGLEWVSTISSGGGYTHYAPSVKGRFTISRDNAKNSLYLQMNSLRAEDTAVYYCARHPRDFSYAMDYWGQGTTVTVSS
VL: EIVMTQSPATLSVSPGERATLSCKASQDVGHYVAWYQQKPGQAPRLLIYWASTRATGIPARFSGSGSGTEFTLTISSLQSEDFAVYYCQQYNIYPWTFGQGTKVEIK
For the molecule B8, in the experiment with human ROR2 (human), the binding entry is on record as “binds”.

B9: h6E6-114 scFv clone (scFv, V domains shown)
VH: EVQLVESGGGLVKPGGSLRLSCAASGFTFSKYGMSWVRQAPGKGLEWVSTISSGGGYTHYVTSVKGRFTISRDNAKNSLYLQMNSLRAEDTAVYYCARHPRDFSYAMDYWGQGTTVTVSS
VL: EIVMTQSPATLSVSPGERATLSCKASQDVGHYLAWYQQKPGQAPRLLIYWASTRATGIPARFSGSGSGTEFTLTISSLQSEDFAVYYCQQYNIYPWTFGQGTKVEIK
Regarding B9, the binding result in the experiment with human ROR2 (human) is “binds”.

B10: h6E6-116 anti-human ROR2 chimeric antigen receptor (protein, not shown: small tags and cut ends)
chain: EVQLVESGGGLVKPGGSLRLSCAASGFTFSTYGVSWVRQAPGKGLEWVSTISSGGGYTHYAGSVKGRFTISRDNAKNSLYLQMNSLRAEDTAVYYCARHPRDFSYALDYWGQGTTVTVSSEIVMTQSPATLSVSPGERATLSCRASQDVGHYLAWYQQKPGQAPRLLIYWASTRATGIPARFSGSGSGTEFTLTISSLQSEDFAVYYCQQYNIYPWTFGQGTKVEIK
Regarding B10, the binding result in experiment [1] is “binds”.
